No constants are given. Whether binding was seen depends on the method and setting. In cells and extracts the contact can be indirect. Binding can be weak; no strength is given.
Target: fructose bis phosphate aldolase (mouse) (mouse (endogenous in mouse tissues))
Experiment: co-IP; polyclonal fructose bisphosphate aldolase antibody linked to agarose beads; tissue extracts of mice with wild-type SCHAD, 4°C overnight; Western blot for SCHAD; albumin blank

B1: SCHAD (endogenous, mouse) (enzyme, UniProt Q61425 13-314)
chain: SSSSSASAAAKKILIKHVTVIGGGLMGAGIAQVAAATGHTVVLVDQTEDILAKSKKGIEESLKRMAKKKFTENPKAGDEFVEKTLSCLSTSTDAASVVHSTDLVVEAIVENLKLKNELFQRLDKFAAEHTIFASNTSSLQITNIANATTRQDRFAGLHFFNPVPMMKLVEVIKTPMTSQKTFESLVDFCKTLGKHPVSCKDTPGFIVNRLLVPYLIEAVRLHERGDASKEDIDTAMKLGAGYPMGPFELLDYVGLDTTKFILDGWHEMEPENPLFQPSPSMNNLVAQKKLGKKTGEGFYKYK
binding: binds

From article PMC3322157
